# Reference: the supplement of paper PMC10338343
# ± gives the standard deviation. Some of the results follow. Many of these values have a large error.
# Tested on: EfPiwi piRISC loaded with L1MC piRNA (26 nt)
# Test: pre-steady-state target cleavage rate (min^-1); guide: L1MC piRNA 5'p-UAACUAAAUACUAUGCAAGCUGUAGG; MIWI and MILI are mouse PIWI proteins and EfPiwi is from a freshwater sponge; tags in brackets are library labels; higher = faster piRNA-guided slicing of the target
# Details: auxiliary factor: 500 nM Ephydatia muelleri Gtsf1
# How it was run: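 The method was Cleave-'n-Seq, in which uncleaved targets from a transcribed, DNA-blocked target RNA library were sequenced after exposure to active affinity-purified piRISC carrying one synthetic guide, with or without GTSF1 partner protein. Reactions contained 0.1 nM library, 1 nM piRISC and, where present, 500 nM GTSF1 in HEPES–potassium acetate buffer at 33 °C for 0–8 or 0–960 min. Reads were normalised to depth and to weakly complementary targets, three trials were pooled, and k3 was capped at 0.0001 min^-1. The pre-steady-state cleavage rate came from a burst-and-steady-state fit.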
row,Sequence,pre-steady-state target cleavage rate
1,UCCUCCUACAGCUUCGAUAGUAUUUUCAAA,0.00156 ± 0.0033
2,UCCUGGAUCAGCUUGCAUAGAUUUUACAAA,0.000671 ± 0.0054
3,UCCUGCUACAGCUUGCAUAGAUUUUAGAAA,0.00168 ± 0.0031
4,UCCUGGUACAGCUUGCAUACAAUUUACAAA,0.00157 ± 0.0061
5,UCCUCCUACAGCUUGCAUAGUAUUAAGAAA,0.0051 ± 0.0031
6,UCCUGGAUGUCGAUGCAUAAGUAUUUAGUUA,0.000528 ± 0.0073
7,UCCUGGUACACGUUGCAUAGUAUUUAGAAA,0.00151 ± 0.003
8,UCCUGGAUGACGAUGCAUAGUAUUUAGUUA,0.00546 ± 0.0027
9,UCCUGCUACAGCUUGCAUAGAAUUUUCAAA,0.00141 ± 0.0034
10,UCCUGGAUGAGCUUGCAUAGUAUUUAUUUA,0.00435 ± 0.0029
11,UCCUGGUACAGCUUGCAUAGUAUUUAGCUA,0.00142 ± 0.0042
12,UCCUGGAUGAGCUUCCAUAGUAUUUAGAUA,0.00223 ± 0.0024
13,UCCUGGUACAGCAAGCAUAGUAUUUUCAAA,0.00206 ± 0.0048
14,UCCUCCUACAGCUUGCAUAGUAUUAGUUA,0.00402 ± 0.0027
15,UCCUGGAUGAGCUUGCAUACAUUUUAGAAA,0.000353 ± 0.011
16,UCCUGGAUGUCCUUGCUUAGAAUUUAGUUA,0.000134 ± 0.031
17,UCCUGCUACAGCUUGCAUAGAUAUUAGUAA,0.00195 ± 0.0038
18,UCCUCCUACAGCUUGCAUAGUAAAUUCAAA,0.00279 ± 0.0021
19,UCCUGCUACAGCUUGCAUAGUAUAUACAAA,0.00238 ± 0.0022
20,UCCUCCUACAGCUACGAUAGUAUUUUCAAA,0.00114 ± 0.007

row,Sequence,pre-steady-state target cleavage rate
1,UCCUGGAUGAGCUUGCAUAGUUUUUACAAA,0.000688 ± 0.004
2,UCCUGGAUGAGCUUGCAUAGAUUUUAGAAA,0.000573 ± 0.0054
3,UCCUGGUACAGCUUCCAUAGUAAUUAGUUA,0.00126 ± 0.0032
4,UCCUGGAUGAGCUUGCAUGUAUUUAGUUA,0.00153 ± 0.0046
5,UCCUCCUACAGCUUGCAUAGAUAUUAGUUA,0.00105 ± 0.0042
6,UCCUGGUACAGCUUGCAUAAGUAUUUAGUUA,0.00142 ± 0.0047
7,UCCUCCUACAGCUUGGUAAGUAUUUUCAAA,0.000344 ± 0.0077
8,UCCUGGUACAGCUUGCAAUGUAUUUAGAAA,0.000536 ± 0.0062
9,UCCUGGAACACCUAGCAUAGUAUUUAGUUA,0.00601 ± 0.0036
10,UCCUGGAUGAGCUUGCAUUGUAUUUACAAA,0.000739 ± 0.008
11,UCCUGGAACAGGUUGCAUAGUAUUUACAAA,0.0012 ± 0.003
12,UCCUGCUACAGCUUGCAUUCUAUUUACAAA,0.000267 ± 0.011
13,UCCUGGAACAGCUUCGUUAGUAUUUAGUAA,0.000349 ± 0.011
14,UCCUCCUACAGCAACCAUAGUAUUUACAAA,0.000997 ± 0.0082
15,UCCUGGAUGUCGAAGCAUAUUAUUUAGUUA,0.000375 ± 0.0082
16,UCCUGGAUCAGCAACCAUAGUAUUUACAAA,0.000292 ± 0.012
17,UCCUGGAUGAGCUUGCAUAGUAAAAAGUAA,0.000392 ± 0.021
18,UCCUCCUACAGCUUGCAUAGUUAUUACAAA,0.00183 ± 0.0043
19,UCCUGGAUGUGCUUGCAUGUAUUUAGUUA,0.00141 ± 0.006
20,UCCUGGAACAGCUUGCAAAGUAUUUUCAAA,0.00167 ± 0.0024

# Same assay, conditions: auxiliary factor: none (no Gtsf1)
row,Sequence,pre-steady-state target cleavage rate
1,UCCUCCUACAGCUUCGAUAGUAUUUUCAAA,0.00025 ± 0.017
2,UCCUGGAUCAGCUUGCAUAGAUUUUACAAA,0.000338 ± 0.021
3,UCCUGCUACAGCUUGCAUAGAUUUUAGAAA,0.000185 ± 0.024
4,UCCUGGUACAGCUUGCAUACAAUUUACAAA,0.000351 ± 0.021
5,UCCUCCUACAGCUUGCAUAGUAUUAAGAAA,0.000467 ± 0.012
6,UCCUGGAUGUCGAUGCAUAAGUAUUUAGUUA,0.000511 ± 0.015
7,UCCUGGUACACGUUGCAUAGUAUUUAGAAA,0.000424 ± 0.019
8,UCCUGGAUGACGAUGCAUAGUAUUUAGUUA,0.00153 ± 0.007
9,UCCUGCUACAGCUUGCAUAGAAUUUUCAAA,< 0.0001
10,UCCUGGAUGAGCUUGCAUAGUAUUUAUUUA,0.00133 ± 0.0082
11,UCCUGGUACAGCUUGCAUAGUAUUUAGCUA,0.000278 ± 0.047
12,UCCUGGAUGAGCUUCCAUAGUAUUUAGAUA,0.000201 ± 0.044
13,UCCUGGUACAGCAAGCAUAGUAUUUUCAAA,0.000143 ± 0.033
14,UCCUCCUACAGCUUGCAUAGUAUUAGUUA,0.000678 ± 0.0071
15,UCCUGGAUGAGCUUGCAUACAUUUUAGAAA,0.000278 ± 0.035
16,UCCUGGAUGUCCUUGCUUAGAAUUUAGUUA,0.000123 ± 0.051
17,UCCUGCUACAGCUUGCAUAGAUAUUAGUAA,0.000364 ± 0.015
18,UCCUCCUACAGCUUGCAUAGUAAAUUCAAA,0.000407 ± 0.011
19,UCCUGCUACAGCUUGCAUAGUAUAUACAAA,0.000641 ± 0.015
20,UCCUCCUACAGCUACGAUAGUAUUUUCAAA,0.000209 ± 0.024

row,Sequence,pre-steady-state target cleavage rate
1,UCCUGGAUGAGCUUGCAUAGUUUUUACAAA,0.000299 ± 0.024
2,UCCUGGAUGAGCUUGCAUAGAUUUUAGAAA,0.000563 ± 0.011
3,UCCUGGUACAGCUUCCAUAGUAAUUAGUUA,0.00053 ± 0.011
4,UCCUGGAUGAGCUUGCAUGUAUUUAGUUA,0.000989 ± 0.0098
5,UCCUCCUACAGCUUGCAUAGAUAUUAGUUA,0.000633 ± 0.0078
6,UCCUGGUACAGCUUGCAUAAGUAUUUAGUUA,0.000528 ± 0.022
7,UCCUCCUACAGCUUGGUAAGUAUUUUCAAA,0.000336 ± 0.013
8,UCCUGGUACAGCUUGCAAUGUAUUUAGAAA,0.000134 ± 0.05
9,UCCUGGAACACCUAGCAUAGUAUUUAGUUA,0.000569 ± 0.012
10,UCCUGGAUGAGCUUGCAUUGUAUUUACAAA,0.000434 ± 0.018
11,UCCUGGAACAGGUUGCAUAGUAUUUACAAA,0.000104 ± 0.059
12,UCCUGCUACAGCUUGCAUUCUAUUUACAAA,0.000142 ± 0.029
13,UCCUGGAACAGCUUCGUUAGUAUUUAGUAA,0.000298 ± 0.016
14,UCCUCCUACAGCAACCAUAGUAUUUACAAA,0.000184 ± 0.032
15,UCCUGGAUGUCGAAGCAUAUUAUUUAGUUA,0.000421 ± 0.016
16,UCCUGGAUCAGCAACCAUAGUAUUUACAAA,0.000269 ± 0.027
17,UCCUGGAUGAGCUUGCAUAGUAAAAAGUAA,0.000206 ± 0.02
18,UCCUCCUACAGCUUGCAUAGUUAUUACAAA,0.000394 ± 0.016
19,UCCUGGAUGUGCUUGCAUGUAUUUAGUUA,0.000347 ± 0.027
20,UCCUGGAACAGCUUGCAAAGUAUUUUCAAA,0.000176 ± 0.036
